From patent US20210171576A1, “METHODS FOR TREATING CANCER WITH ACYLDEPSIPEPTIDE ANALOGS” (priority 2018, published 2021)

B1: AKAP1 (protein, UniProt Q92667 30-903, looked up)
A-kinase anchor protein 1, …: KGHVSSHDEQQVEAGAVQLRADPAIKEPLPVEDVCPKVVSTPPSVTEPPEKELSTVSKLPAEPPALLQTHPPCRRSESSGILPNTTDMRLRPGTRRDDSTKLELALTGGEAKSIPLECPLSSPKGVLFSSKSAEVCKQDSPFSRVPRKVQPGYPVVPAEKRSSGERARETGGAEGTGDAVLGEKVLEEALLSREHVLELENSKGPSLASLEGEEDKGKSSSSQVVGPVQEEEYVAEKLPSRFIESAHTELAKDDAAPAPPVADAKAQDRGVEGELGNEESLDRNEEGLDRNEEGLDRNEESLDRNEEGLDRNEEIKRAAFQIISQVISEATEQVLATTVGKVAGRVCQASQLQGQKEESCVPVHQKTVLGPDTAEPATAEAAVAPPDAGLPLPGLPAEGSPPPKTYVSCLKSLLSSPTKDSKPNISAHHISLASCLALTTPSEELPDRAGILVEDATCVTCMSDSSQSVPLVASPGHCSDSFSTSGLEDSCTETSSSPRDKAITPPLPESTVPFSNGVLKGELSDLGAEDGWTMDAEADHSGGSDRNSMDSVDSCCSLKKTESFQNAQAGSNPKKVDLIIWEIEVPKHLVGRLIGKQGRYVSFLKQTSGAKIYISTLPYTQSVQICHIEGSQHHVDKALNLIGKKFKELNLTNIYAPPLPSLALPSLPMTSWLMLPDGITVEVIVVNQVNAGHLFVQQHTHPTFHALRSLDQQMYLCYSQPGIPTLPTPVEITVICAAPGADGAWWRAQVVASYEETNEVEIRYVDYGGYKRVKVDVLRQIRSDFVTLPFQGAEVLLDSVMPLSDDDQFSPEADAAMSEMTGNTALLAQVTSYSPTGLPLIQLWSVVGDEVVLINRSLVERGLAQWVDSYYTSL
B2: ALDH18A1 (protein, UniProt P54886 1-795, looked up)
Delta-1-pyrroline-5-carboxylat …: MLSQVYRCGFQPFNQHLLPWVKCTTVFRSHCIQPSVIRHVRSWSNIPFITVPLSRTHGKSFAHRSELKHAKRIVVKLGSAVVTRGDECGLALGRLASIVEQVSVLQNQGREMMLVTSGAVAFGKQRLRHEILLSQSVRQALHSGQNQLKEMAIPVLEARACAAAGQSGLMALYEAMFTQYSICAAQILVTNLDFHDEQKRRNLNGTLHELLRMNIVPIVNTNDAVVPPAEPNSDLQGVNVISVKDNDSLAARLAVEMKTDLLIVLSDVEGLFDSPPGSDDAKLIDIFYPGDQQSVTFGTKSRVGMGGMEAKVKAALWALQGGTSVVIANGTHPKVSGHVITDIVEGKKVGTFFSEVKPAGPTVEQQGEMARSGGRMLATLEPEQRAEIIHHLADLLTDQRDEILLANKKDLEEAEGRLAAPLLKRLSLSTSKLNSLAIGLRQIAASSQDSVGRVLRRTRIAKNLELEQVTVPIGVLLVIFESRPDCLPQVAALAIASGNGLLLKGGKEAAHSNRILHLLTQEALSIHGVKEAVQLVNTREEVEDLCRLDKMIDLIIPRGSSQLVRDIQKAAKGIPVMGHSEGICHMYVDSEASVDKVTRLVRDSKCEYPAACNALETLLIHRDLLRTPLFDQIIDMLRVEQVKIHAGPKFASYLTFSPSEVKSLRTEYGDLELCIEVVDNVQDAIDHIHKYGSSHTDVIVTEDENTAEFFLQHVDSACVFWNASTRFSDGYRFGLGAEVGISTSRIHARGPVGLEGLLTTKWLLRGKDHVVSDFSEHGSLKYLHENLPIPQRNTN
B3: ALDH4A1 (protein, UniProt P30038 25-563, looked up)
Delta-1-pyrroline-5-carboxylat …: KHTSSLKVANEPVLAFTQGSPERDALQKALKDLKGRMEAIPCVVGDEEVWTSDVQYQVSPFNHGHKVAKFCYADKSLLNKAIEAALAARKEWDLKPIADRAQIFLKAADMLSGPRRAEILAKTMVGQGKTVIQAEIDAAAELIDFFRFNAKYAVELEGQQPISVPPSTNSTVYRGLEGFVAAISPFNFTAIGGNLAGAPALMGNVVLWKPSDTAMLASYAVYRILREAGLPPNIIQFVPADGPLFGDTVTSSEHLCGINFTGSVPTFKHLWKQVAQNLDRFHTFPRLAGECGGKNFHFVHRSADVESVVSGTLRSAFEYGGQKCSACSRLYVPHSLWPQIKGRLLEEHSRIKVGDPAEDFGTFFSAVIDAKSFARIKKWLEHARSSPSLTILAGGKCDDSVGYFVEPCIVESKDPQEPIMKEEIFGPVLSVYVYPDDKYKETLQLVDSTTSYGLTGAVFSQDKDVVQEATKVLRNAAGNFYINDKSTGSIVGQQPFGGARASGTNDKPGGPHYILRWTSPQVIKETHKPLGDWSYAYMQ
B4: ALDH7A1 (protein, UniProt P49419 27-539, looked up)
Alpha-aminoadipic …: AFMSTLLINQPQYAWLKELGLREENEGVYNGSWGGRGEVITTYCPANNEPIARVRQASVADYEETVKKAREAWKIWADIPAPKRGEIVRQIGDALREKIQVLGSLVSLEMGKILVEGVGEVQEYVDICDYAVGLSRMIGGPILPSERSGHALIEQWNPVGLVGIITAFNFPVAVYGWNNAIAMICGNVCLWKGAPTTSLISVAVTKIIAKVLEDNKLPGAICSLTCGGADIGTAMAKDERVNLLSFTGSTQVGKQVGLMVQERFGRSLLELGGNNAIIAFEDADLSLVVPSALFAAVGTAGQRCTTARRLFIHESIHDEVVNRLKKAYAQIRVGNPWDPNVLYGPLHTKQAVSMFLGAVEEAKKEGGTVVYGGKVMDRPGNYVEPTIVTGLGHDASIAHTETFAPILYVFKFKNEEEVFAWNNEVKQGLSSSIFTKDLGRIFRWLGPKGSDCGIVNVNIPTSGAEIGGAFGGEKHTGGGRESGSDAWKQYMRRSTCTINYSKDLPLAQGIKFQ
B5: ATAD3A (protein, UniProt Q9NVI7 2-586, looked up)
ATPase family AAA …: SWLFGINKGPKGEGAGPPPPLPPAQPGAEGGGDRGLGDRPAPKDKWSNFDPTGLERAAKAARELEHSRYAKDALNLAQMQEQTLQLEQQSKLKEYEAAVEQLKSEQIRAQAEERRKTLSEETRQHQARAQYQDKLARQRYEDQLKQQQLLNEENLRKQEESVQKQEAMRRATVEREMELRHKNEMLRVEAEARARAKAERENADIIREQIRLKAAEHRQTVLESIRTAGTLFGEGFRAFVTDWDKVTATVAGLTLLAVGVYSAKNATLVAGRFIEARLGKPSLVRETSRITVLEALRHPIQVSRRLLSRPQDALEGVVLSPSLEARVRDIAIATRNTKKNRSLYRNILMYGPPGTGKTLFAKKLALHSGMDYAIMTGGDVAPMGREGVTAMHKLFDWANTSRRGLLLFVDEADAFLRKRATEKISEDLRATLNAFLYRTGQHSNKFMLVLASNQPEQFDWAINDRINEMVHFDLPGQEERERLVRMYFDKYVLKPATEGKQRLKLAQFDYGRKCSEVARLTEGMSGREIAQLAVSWQATAYASEDGVLTEAMMDTRVQDAVQQHQQKMCWLKAEGPGRGDEPSPS
B6: ATP5F1 (protein, UniProt P24539 43-256, looked up)
ATP synthase peripheral stalk …: PVPPLPEYGGKVRYGLIPEEFFQFLYPKTGVTGPYVLGTGLILYALSKEIYVISAETFTALSVLGVMVYGIKKYGPFVADFADKLNEQKLAQLEEAKQASIQHIQNAIDTEKSQQALVQKRHYLFDVQRNNIAMALEVTYRERLYRVYKEVKNRLDYHISVQNMMRRKEQEHMINWVEKHVVQSISTQQEKETIAKCIADLKLLAKKAQAQPVM
B7: ATP5J (protein, UniProt P18859 33-108, looked up)
ATP synthase peripheral stalk …: NKELDPIQKLFVDKIREYKSKRQTSGGPVDASSEYQQELERELFKLKQMFGNADMNTFPTFKFEDPKFEVIEKPQA
B8: ATP5O (protein, UniProt P48047 24-213, looked up)
ATP synthase peripheral stalk …: FAKLVRPPVQVYGIEGRYATALYSAASKQNKLEQVEKELLRVAQILKEPKVAASVLNPYVKRSIKVKSLNDITAKERFSPLTTNLINLLAENGRLSNTQGVVSAFSTMMSVHRGEVPCTVTSASPLEEATLSELKTVLKSFLSQGQVLKLEAKTDPSILGGMIVRIGEKYVDMSVKTKIQKLGRAMREIV
B9: C1QBP (protein, UniProt Q07021 74-282, looked up)
Complement component 1 Q …: LHTDGDKAFVDFLSDEIKEERKIQKHKTLPKMSGGWELELNGTEAKLVRKVAGEKITVTFNINNSIPPTFDGEEEPSQGQKVEEQEPELTSTPNFVVEVIKNDDGKKALVLDCHYPEDEVGQEDEAESDIFSIREVSFQSTGESEWKDTNYTLNTDSLDWALYDHLMDFLADRGVDNTFADELVELSTALEHQEYITFLEDLKSFVKSQ
B10: CCDC58 (protein, UniProt Q4VC31 2-144, looked up)
Protein MIX23: AAPSGGVNCEEFAEFQELLKVMRTIDDRIVHELNTTVPTASFAGKIDASQTCKQLYESLMAAHASRDRVIKNCIAQTSAVVKNLREEREKNLDDLTLLKQLRKEQTKLKWMQSELNVEEVVNDRSWKVFNERCRIHFKPPKNE
B11: CECR5 (protein, UniProt Q9BXW7 24-423, looked up)
Haloacid dehalogenase-like …: AAGLQGRPARRCYAVGPAQSPPTFGFLLDIDGVLVRGHRVIPAALKAFRRLVNSQGQLRVPVVFVTNAGNILQHSKAQELSALLGCEVDADQVILSHSPMKLFSEYHEKRMLVSGQGPVMENAQGLGFRNVVTVDELRMAFPLLDMVDLERRLKTTPLPRNDFPRIEGVLLLGEPVRWETSLQLIMDVLLSNGSPGAGLATPPYPHLPVLASNMDLLWMAEAKMPRFGHGTFLLCLETIYQKVTGKELRYEGLMGKPSILTYQYAEDLIRRQAERRGWAAPIRKLYAVGDNPMSDVYGANLFHQYLQKATHDGAPELGAGGTRQQQPSASQSCISILVCTGVYNPRNPQSTEPVLGGGEPPFHGHRDLCFSPGLMEASHVVNDVNEAVQLVFRKEGWALE
B12: COQ5 (protein, UniProt Q5HYK3 43-327, looked up)
2-methoxy-6-polyprenyl-1,4-ben …: LSQEKRAAETHFGFETVSEEEKGGKVYQVFESVAKKYDVMNDMMSLGIHRVWKDLLLWKMHPLPGTQLLDVAGGTGDIAFRFLNYVQSQHQRKQKRQLRAQQNLSWEEIAKEYQNEEDSLGGSRVVVCDINKEMLKVGKQKALAQGYRAGLAWVLGDAEELPFDDDKFDIYTIAFGIRNVTHIDQALQEAHRVLKPGGRFLCLEFSQVNNPLISRLYDLYSFQVIPVLGEVIAGDWKSYQYLVESIRRFPSQEEFKDMIEDAGFHKVTYESLTSGIVAIHSGFKL
B13: CYB5R3 (protein, UniProt P00387 2-301, looked up)
NADH-cytochrome b5 reductase 3: GAQLSTLGHMVLFPVWFLYSLLMKLFQRSTPAITLESPDIKYPLRLIDREIISHDTRRFRFALPSPQHILGLPVGQHIYLSARIDGNLVVRPYTPISSDDDKGFVDLVIKVYFKDTHPKFPAGGKMSQYLESMQIGDTIEFRGPSGLLVYQGKGKFAIRPDKKSNPIIRTVKSVGMIAGGTGITPMLQVIRAIMKDPDDHTVCHLLFANQTEKDILLRPELEELRNKHSARFKLWYTLDRAPEAWDYGQGFVNEEMIRDHLPPPEEEPLVLMCGPPPMIQYACLPNLDHVGHPTERCFVF
B14: CYC1 (protein, UniProt P08574 85-325, looked up)
Cytochrome c1, heme protein, …: SDLELHPPSYPWSHRGLLSSLDHTSIRRGFQVYKQVCASCHSMDFVAYRHLVGVCYTEDEAKELAAEVEVQDGPNEDGEMFMRPGKLFDYFPKPYPNSEAARAANNGALPPDLSYIVRARHGGEDYVFSLLTGYCEPPTGVSLREGLYFNPYFPGQAIAMAPPIYTDVLEFDDGTPATMSQIAKDVCTFLRWASEPEHDHRKRMGLKMLMMMALLVPLVYTIKRHKWSVLKSRKLAYRPPK

Tested on: mitochondrial proteins of HEK293 T-REx cells
Assay: Mitochondrial proteome profiling for WT and CLPP^−/− (fold change CLPP^−/−/WT)
Design: species or system human
Details: fold change of mitochondrial protein detected in CLPP knockout compared to WT HEK293 T-REx cells; MaxQuant total peptide ion intensity

| Molecule | Avg. fold change (CLPP KO/WT) |
| --- | --- |
| B1 | −1.27 |
| B2 | −1.03 |
| B3 | −1.41 |
| B4 | 1.09 |
| B5 | 1.13 |
| B6 | 1.40 |
| B7 | 1.00 |
| B8 | −1.12 |
| B9 | 1.19 |
| B10 | 1.07 |
| B11 | −1.06 |
| B12 | −1.19 |
| B13 | −1.20 |
| B14 | 1.32 |
